The text below walks through data of publication PMC10805786.

Protein sequences, listed by entry. Tags and fused reporters are not part of them. Lines headed by an entry give the natural chain unless they say otherwise; changes in a name come on top.
UniProt P23368: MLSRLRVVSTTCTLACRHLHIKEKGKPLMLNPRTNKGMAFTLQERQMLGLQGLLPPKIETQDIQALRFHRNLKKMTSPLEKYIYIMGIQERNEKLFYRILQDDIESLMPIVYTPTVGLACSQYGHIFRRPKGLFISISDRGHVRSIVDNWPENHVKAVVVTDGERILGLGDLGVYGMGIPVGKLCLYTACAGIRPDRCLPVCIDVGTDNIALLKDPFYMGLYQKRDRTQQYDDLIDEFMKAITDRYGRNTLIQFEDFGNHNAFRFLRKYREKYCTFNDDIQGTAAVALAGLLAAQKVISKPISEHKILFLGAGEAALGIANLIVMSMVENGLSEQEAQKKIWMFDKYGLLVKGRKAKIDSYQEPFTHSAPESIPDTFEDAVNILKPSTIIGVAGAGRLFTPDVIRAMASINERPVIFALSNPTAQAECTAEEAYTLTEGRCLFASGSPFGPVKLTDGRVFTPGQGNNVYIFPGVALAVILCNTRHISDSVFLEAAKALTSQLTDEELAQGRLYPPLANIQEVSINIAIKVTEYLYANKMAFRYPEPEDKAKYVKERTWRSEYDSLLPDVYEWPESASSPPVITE
UniProt P06733: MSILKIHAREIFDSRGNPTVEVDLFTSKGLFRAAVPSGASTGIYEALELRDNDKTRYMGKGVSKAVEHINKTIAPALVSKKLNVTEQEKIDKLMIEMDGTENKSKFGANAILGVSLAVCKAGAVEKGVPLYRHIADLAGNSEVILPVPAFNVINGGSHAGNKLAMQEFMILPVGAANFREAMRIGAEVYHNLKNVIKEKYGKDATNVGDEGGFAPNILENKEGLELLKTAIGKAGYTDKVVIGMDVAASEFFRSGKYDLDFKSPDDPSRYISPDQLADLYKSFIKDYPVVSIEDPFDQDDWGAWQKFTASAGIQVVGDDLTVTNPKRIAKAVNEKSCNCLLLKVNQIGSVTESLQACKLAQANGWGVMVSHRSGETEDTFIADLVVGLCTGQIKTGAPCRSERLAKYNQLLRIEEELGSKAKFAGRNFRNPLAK
UniProt P11413: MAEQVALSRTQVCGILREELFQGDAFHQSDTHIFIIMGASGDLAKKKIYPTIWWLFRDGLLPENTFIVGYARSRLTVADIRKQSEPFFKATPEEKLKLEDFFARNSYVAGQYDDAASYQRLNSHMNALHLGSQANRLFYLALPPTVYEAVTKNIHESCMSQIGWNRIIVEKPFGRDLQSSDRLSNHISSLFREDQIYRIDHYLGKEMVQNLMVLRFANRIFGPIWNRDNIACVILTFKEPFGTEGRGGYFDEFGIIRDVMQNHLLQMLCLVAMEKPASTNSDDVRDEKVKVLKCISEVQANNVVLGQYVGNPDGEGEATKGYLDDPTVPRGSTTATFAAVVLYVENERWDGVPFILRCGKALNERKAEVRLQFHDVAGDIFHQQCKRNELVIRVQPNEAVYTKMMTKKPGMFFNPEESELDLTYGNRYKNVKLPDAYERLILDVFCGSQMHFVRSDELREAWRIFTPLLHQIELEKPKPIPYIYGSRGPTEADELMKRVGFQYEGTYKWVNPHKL
UniProt P04406: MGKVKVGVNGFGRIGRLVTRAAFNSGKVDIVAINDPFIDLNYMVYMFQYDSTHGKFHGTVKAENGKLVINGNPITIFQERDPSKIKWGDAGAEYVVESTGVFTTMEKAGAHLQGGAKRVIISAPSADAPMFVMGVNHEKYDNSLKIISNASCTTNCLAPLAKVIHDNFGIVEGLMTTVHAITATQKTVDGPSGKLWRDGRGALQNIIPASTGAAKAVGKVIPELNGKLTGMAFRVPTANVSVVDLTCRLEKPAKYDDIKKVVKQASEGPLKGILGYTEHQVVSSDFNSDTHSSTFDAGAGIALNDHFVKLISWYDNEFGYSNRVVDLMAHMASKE
UniProt P14618: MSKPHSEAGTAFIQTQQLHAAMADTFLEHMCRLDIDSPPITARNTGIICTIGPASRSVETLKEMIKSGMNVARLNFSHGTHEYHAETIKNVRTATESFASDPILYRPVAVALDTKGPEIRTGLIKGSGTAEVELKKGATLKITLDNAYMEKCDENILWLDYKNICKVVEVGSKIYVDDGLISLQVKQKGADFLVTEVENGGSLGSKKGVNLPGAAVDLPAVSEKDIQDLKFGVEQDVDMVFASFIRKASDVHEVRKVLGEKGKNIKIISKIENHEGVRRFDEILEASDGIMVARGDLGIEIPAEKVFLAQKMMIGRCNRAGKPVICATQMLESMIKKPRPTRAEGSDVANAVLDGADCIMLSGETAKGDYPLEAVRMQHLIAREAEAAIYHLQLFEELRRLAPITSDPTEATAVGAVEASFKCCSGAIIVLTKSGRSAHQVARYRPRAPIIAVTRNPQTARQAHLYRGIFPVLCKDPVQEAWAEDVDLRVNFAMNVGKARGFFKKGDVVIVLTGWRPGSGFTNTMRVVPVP

The target of this experiment is ME2flS9D-3'Flag (human) (UniProt P23368). Kind of experiment: affinity purification with mass spectrometry; HEK293T cells expressing ME2flS9D-3'Flag or vector control, anti-Flag M2 affinity gel, SDS-PAGE bands, LC-MS/MS (Orbitrap Elite).

No constants are given. Whether binding was seen depends on the method and setting. In cells and extracts the contact can be indirect. A yes stands for co-enrichment or nearness to the bait. Other partners may have been found.

Regarding “ENO1, endogenous in HEK293T (from UniProt P06733 1-434) (enzyme)”, the binding result is given as “binds”.

Consider “G6PD, endogenous in HEK293T (from UniProt P11413 1-515) (enzyme)”, for which the binding result was “binds”.

“GAPDH, endogenous in HEK293T (from UniProt P04406 1-335) (enzyme)”: the binding result is “binds”.

With “PKM, endogenous in HEK293T (from UniProt P14618 1-531) (enzyme)”, the binding result is “binds”.

B1: ALDOA, endogenous in HEK293T (enzyme, UniProt P04075 1-364)
chain: MPYQYPALTPEQKKELSDIAHRIVAPGKGILAADESTGSIAKRLQSIGTENTEENRRFYRQLLLTADDRVNPCIGGVILFHETLYQKADDGRPFPQVIKSKGGVVGIKVDKGVVPLAGTNGETTTQGLDGLSERCAQYKKDGADFAKWRCVLKIGEHTPSALAIMENANVLARYASICQQNGIVPIVEPEILPDGDHDLKRCQYVTEKVLAAVYKALSDHHIYLEGTLLKPNMVTPGHACTQKFSHEEIAMATVTALRRTVPPAVTGITFLSGGQSEEEASINLNAINKCPLLKPWALTFSYGRALQASALKAWGGKKENLKAAQEEYVKRALANSLACQGKYTPSGQAGAAASESLFVSNHAY
Turning to B1, the binding entry was “binds”.
